{"source": "paper doi:10.1101/2020.10.06.328641", "molecular_target": "T1, KSHV ORF59, DNA polymerase processivity factor (KSHV (human herpesvirus 8), BAC16 in iSLK cells) (UniProt F5HID2)", "T1 sequence": "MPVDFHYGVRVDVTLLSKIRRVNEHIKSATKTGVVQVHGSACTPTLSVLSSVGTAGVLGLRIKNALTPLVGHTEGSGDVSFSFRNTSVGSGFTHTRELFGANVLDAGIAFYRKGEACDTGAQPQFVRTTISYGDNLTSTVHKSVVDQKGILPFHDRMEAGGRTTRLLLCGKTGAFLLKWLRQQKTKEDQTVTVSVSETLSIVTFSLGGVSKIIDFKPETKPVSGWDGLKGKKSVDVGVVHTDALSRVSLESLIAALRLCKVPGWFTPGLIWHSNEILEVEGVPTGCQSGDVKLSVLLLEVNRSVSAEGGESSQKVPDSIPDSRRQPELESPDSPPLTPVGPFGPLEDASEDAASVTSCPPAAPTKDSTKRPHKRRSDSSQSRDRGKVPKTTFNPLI", "assay": "co-IP", "note": "No constants are given. Whether binding was seen depends on the method and setting. Binding seen in cells or lysates may run through a third protein. Binding calls can cover weak binding; strength is not graded here.", "data": [{"substance": "KSHV ORF20 protein", "values": [{"measurement": "binding", "result": "binds"}]}]}
